Measurements from PMC11220018.
These are yes or no findings as the source states them, for the method shown. Binding seen in cells or lysates may run through a third protein. Some entries that bind do so weakly or less than the wild type.

The chains behind the UniProt entries cited, without tags or fusion partners. Where a name states a change or a piece, a line headed by the entry shows the natural chain unless it says otherwise.
UniProt P05556: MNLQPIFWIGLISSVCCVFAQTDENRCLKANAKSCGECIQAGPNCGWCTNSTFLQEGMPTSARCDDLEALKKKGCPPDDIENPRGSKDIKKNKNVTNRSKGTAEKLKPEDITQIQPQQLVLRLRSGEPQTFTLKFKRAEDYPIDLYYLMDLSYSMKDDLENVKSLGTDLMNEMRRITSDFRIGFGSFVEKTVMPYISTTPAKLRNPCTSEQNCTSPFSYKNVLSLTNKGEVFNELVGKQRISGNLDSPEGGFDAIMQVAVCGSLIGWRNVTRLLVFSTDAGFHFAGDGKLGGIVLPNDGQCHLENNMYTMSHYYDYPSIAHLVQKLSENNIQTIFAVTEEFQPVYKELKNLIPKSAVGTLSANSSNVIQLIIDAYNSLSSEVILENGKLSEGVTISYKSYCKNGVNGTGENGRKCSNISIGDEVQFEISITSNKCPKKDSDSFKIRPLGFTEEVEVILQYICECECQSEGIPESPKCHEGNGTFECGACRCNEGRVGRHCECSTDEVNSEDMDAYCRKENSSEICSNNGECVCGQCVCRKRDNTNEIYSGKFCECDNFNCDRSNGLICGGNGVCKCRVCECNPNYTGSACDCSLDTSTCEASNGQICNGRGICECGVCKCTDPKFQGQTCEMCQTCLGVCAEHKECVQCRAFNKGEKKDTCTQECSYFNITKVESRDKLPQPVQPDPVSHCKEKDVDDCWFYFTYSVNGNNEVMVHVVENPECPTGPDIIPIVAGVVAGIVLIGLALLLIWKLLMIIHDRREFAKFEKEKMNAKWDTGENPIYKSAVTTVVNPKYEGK

Key:
[1] = target: NRP1 (human (endogenous in LX-2)) (UniProt O14786); assay: co-IP; LX-2 cells treated with supernatant (CM) of OE-Sema3C Hep3B cells; lysate, rProtein A/G magnetic beads, western blot
NRP1 = NRP1 (UniProt O14786); assay: co-IP; Huh7 cell lysates; anti-Flag or anti-HA or IgG control overnight at 4 °C, rProtein A/G MagPoly beads, western blot; also after knock-down of NRP1 or of ITGB1
Semaphorin 3C = target: T1, Semaphorin 3C (UniProt Q99985); assay: as above
T1 sequence: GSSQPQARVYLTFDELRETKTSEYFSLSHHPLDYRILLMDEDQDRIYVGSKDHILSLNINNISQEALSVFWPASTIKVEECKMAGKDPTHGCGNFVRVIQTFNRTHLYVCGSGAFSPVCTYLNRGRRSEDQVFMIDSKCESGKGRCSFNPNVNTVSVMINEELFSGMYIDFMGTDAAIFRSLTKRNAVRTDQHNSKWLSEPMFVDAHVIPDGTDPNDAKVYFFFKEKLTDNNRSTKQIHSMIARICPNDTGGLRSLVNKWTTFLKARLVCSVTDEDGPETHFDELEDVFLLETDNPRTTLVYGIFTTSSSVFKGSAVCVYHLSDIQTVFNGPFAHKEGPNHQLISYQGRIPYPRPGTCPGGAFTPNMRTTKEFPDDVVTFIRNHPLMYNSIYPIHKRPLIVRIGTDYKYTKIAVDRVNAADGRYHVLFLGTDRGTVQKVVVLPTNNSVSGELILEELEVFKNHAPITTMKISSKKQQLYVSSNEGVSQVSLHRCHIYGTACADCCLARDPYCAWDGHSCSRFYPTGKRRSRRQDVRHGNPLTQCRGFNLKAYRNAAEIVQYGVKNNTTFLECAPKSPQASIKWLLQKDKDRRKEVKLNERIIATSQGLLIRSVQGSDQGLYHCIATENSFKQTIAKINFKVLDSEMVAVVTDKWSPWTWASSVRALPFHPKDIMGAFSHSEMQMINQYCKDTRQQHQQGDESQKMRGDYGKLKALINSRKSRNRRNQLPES

binding [1]	binding (NRP1)	binding (Semaphorin 3C)	Substance
binds	binds		ITGB1 (from UniProt P05556 21-798) (receptor)
		binds	NRP1 (from UniProt O14786 22-923) (receptor)
